Experimental data: patent US20260158194A1, “DRUG COATED BALLOON” (ARTERIUS LIMITED, priority 2021, published 2026)
At least one compound was matched to its structure with a doubt left.

What was measured:
[1] = Drug release profile of spray-coated balloons, PBS then methanol elution, UV (Example 4); assay type: physicochemical
Method: The technique of spray coating was introduced using a 5% solution of high molecular weight polymer PEG-PPO-PEG (Mn=14,600) in methanol. This spray coating method was used to add multiple layers of coating and ensured the correct area of the balloon was coated in a more precise fashion.
In this example, a set of experiments was conducted to assess the drug release profiles of Sirolimus and Dipyridamole. The samples were spray coated with their coating solutions with nitrogen gas at 1 bar, and 20 rotations were done (10 clockwise and 10 anticlockwise). The separation from the balloon and spray nozzle was approximately 15 cm.
The drug release profiles of both Dipyridamole and Sirolimus were determined using an excipient polymer PEG-PPO-PEG (Mn=14,600) with organic carrier solvent methanol. The coating solution quantities can be found in Table 3.
The resulting coated balloons were eluted in 8 mL of PBS for 3 minutes, before being eluted into 8 mL of methanol for 5 minutes, for full release of the coating.

[2] = Simulated tracking and deployment (ASTM F3320-18) into hydrogel mock-vessel (Examples 14-17); assay type: physicochemical; conditions: single drug

Compound: CO[C@H]1C[C@@H]2CC[C@@H](C)[C@@](O)(O2)C(=O)C(=O)N2CCCC[C@H]2C(=O)O[C@H]([C@H](C)C[C@@H]2CC[C@@H](O)[C@H](OC)C2)CC(=O)[C@H](C)/C=C(\C)[C@@H](O)[C@@H](OC)C(=O)[C@H](C)C[C@H](C)/C=C/C=C/C=C/1C [sirolimus]
- Post-PBS reading @279 nm ([1]; 8 mL PBS 3 minutes, spray coated, PEG-PPO-PEG Mn 14,600): 0.103
- Post-Methanol reading @279 nm ([1]; 8 mL methanol 5 minutes after PBS elution): 0.166
- drug released during elution time ([1]; printed '5-minute elution time', from UV reading and calibration coefficient, PEG-PPO-PEG polymer): 38.3%
- percentage of the total dose delivered to the hydrogel ([2]; dip coated, 20% Pluronic F108 and 8% drug): 36.1%
- loaded drug released during deployment to the hydrogel target site ([2]; spray coated, 1% Pluronic F108 and 2% drug, sterilised): 49.0%
